One molecule from PMC8639842 can be followed below.

The assay has as its target T1, protein tyrosine phosphatase receptor type C (PTPRC, CD45) (mouse (endogenous in P14 CD8+ T cells)) (UniProt P06800).
T1 sequence: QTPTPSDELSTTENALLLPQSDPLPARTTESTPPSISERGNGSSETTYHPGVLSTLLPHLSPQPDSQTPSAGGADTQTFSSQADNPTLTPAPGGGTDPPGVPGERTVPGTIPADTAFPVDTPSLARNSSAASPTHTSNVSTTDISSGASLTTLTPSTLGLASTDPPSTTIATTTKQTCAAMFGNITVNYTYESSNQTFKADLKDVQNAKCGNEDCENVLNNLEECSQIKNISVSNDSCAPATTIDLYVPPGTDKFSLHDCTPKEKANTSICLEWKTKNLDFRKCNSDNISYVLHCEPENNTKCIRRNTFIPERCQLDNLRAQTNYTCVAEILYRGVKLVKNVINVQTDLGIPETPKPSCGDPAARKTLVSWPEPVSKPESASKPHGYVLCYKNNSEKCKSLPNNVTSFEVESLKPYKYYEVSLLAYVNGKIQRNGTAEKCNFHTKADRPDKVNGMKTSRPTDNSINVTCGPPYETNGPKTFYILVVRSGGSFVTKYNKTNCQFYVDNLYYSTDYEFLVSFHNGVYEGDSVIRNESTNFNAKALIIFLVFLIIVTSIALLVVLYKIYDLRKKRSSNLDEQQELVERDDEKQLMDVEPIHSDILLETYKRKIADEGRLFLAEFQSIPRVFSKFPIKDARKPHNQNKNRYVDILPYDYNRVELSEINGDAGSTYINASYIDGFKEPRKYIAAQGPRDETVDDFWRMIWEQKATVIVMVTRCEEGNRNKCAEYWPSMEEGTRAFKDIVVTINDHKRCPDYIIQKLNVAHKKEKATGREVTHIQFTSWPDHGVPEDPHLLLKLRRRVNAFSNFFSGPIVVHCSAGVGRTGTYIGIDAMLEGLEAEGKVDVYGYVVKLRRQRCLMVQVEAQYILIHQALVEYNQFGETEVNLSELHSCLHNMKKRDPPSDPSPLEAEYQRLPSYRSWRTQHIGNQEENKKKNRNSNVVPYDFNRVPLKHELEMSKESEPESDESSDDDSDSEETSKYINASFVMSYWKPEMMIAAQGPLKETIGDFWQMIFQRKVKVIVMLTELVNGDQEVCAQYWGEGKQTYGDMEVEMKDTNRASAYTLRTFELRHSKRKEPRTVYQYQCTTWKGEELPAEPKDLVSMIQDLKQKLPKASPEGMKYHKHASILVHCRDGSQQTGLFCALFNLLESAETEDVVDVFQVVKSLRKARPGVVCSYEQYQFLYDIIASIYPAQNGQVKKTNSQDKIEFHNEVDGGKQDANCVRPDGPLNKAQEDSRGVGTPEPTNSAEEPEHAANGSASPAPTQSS
Put plainly: proximity labelling; only the binder purified.

These are yes or no findings as the source states them, for the method shown. In cells and extracts the contact can be indirect. A yes stands for co-enrichment or nearness to the bait. Other partners may have been found. No binding means not detected with the bait.

B1: gp33-SOG2 (LCMV peptide gp33-41 carrying two thiorhodamine SOG) (peptide)
peptide: KAVYNFATM
Turning to B1, the binding entry is “no binding”.
